# Assay results published in US11787762B2, “Tetralin and tetrahydroquinoline compounds as inhibitors of HIF-2alpha” (ARCUS BIOSCIENCES, INC., priority 2020, dated 2023).
# Chains of the proteins cited; added tags and fusions are not shown. Residues count along the entry.
# UniProt Q99814, whole entry: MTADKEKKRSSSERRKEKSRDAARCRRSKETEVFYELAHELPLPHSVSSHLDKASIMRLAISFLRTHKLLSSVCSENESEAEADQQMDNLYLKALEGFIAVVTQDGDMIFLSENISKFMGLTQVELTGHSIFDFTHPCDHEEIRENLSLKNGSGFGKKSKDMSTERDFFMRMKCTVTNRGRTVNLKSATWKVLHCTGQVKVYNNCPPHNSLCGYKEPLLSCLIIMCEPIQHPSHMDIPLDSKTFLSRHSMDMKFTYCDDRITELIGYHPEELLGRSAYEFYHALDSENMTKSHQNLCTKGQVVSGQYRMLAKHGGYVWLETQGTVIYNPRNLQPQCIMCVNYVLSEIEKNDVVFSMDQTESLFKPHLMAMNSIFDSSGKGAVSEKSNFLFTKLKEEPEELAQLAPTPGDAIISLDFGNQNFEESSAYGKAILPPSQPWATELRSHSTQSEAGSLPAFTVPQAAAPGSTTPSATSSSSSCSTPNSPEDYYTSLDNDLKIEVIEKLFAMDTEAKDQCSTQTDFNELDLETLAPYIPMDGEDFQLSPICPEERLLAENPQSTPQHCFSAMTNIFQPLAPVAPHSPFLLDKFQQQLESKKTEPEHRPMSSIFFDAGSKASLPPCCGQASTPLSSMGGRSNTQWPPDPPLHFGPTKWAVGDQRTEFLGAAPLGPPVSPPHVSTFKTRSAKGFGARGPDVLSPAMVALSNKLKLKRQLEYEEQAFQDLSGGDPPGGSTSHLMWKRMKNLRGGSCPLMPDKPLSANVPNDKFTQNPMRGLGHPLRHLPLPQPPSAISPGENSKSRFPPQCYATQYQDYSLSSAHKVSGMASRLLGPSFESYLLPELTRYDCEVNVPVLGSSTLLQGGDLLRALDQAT
# UniProt Q99814, 240-350 limits assumed: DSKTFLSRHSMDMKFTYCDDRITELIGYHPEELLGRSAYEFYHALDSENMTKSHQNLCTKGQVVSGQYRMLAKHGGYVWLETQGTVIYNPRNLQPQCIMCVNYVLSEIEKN
# The structures given here were assigned with low confidence; some may be wrong.
# Key:
# HIF-2α = HIF-2α (Homo sapiens, UniProt Q99814); assay: HIF-2α luciferase reporter assay in HIF-Luc-786-O cells; format: cell-based; settings: read-out: HIF-2α Luciferase Assay, Table 1, 20 hours incubation
# Protocol: Generation of HIF-2α Luciferase 786-O Cell Line:
# Stable cell lines were generated by transducing 786-O cells (ATCC, CRL-1932) with Cignal Lenti HIF Luc Reporter lentivirus (CLS-007 L, Qiagen) according to the manufacturer's guidelines. In brief, 0.3×10^6 786-0 cells were transduced with lentivirus at a Multiplicity of Infection (MOI) of 25 for 24 hours. After transduction, cells were replenished with fresh RPMI 1640 Medium (Cat. No. 11875085, Thermo Fisher,) supplemented with 10% FBS (Cat. No. A3160502, Gibco), 2 mM GlutaMax (Cat. No. 35050-061, Invitrogen) and 100 units of penicillin and 100 μg of streptomycin/mL (Cat. No 15070063, Thermo Fisher) for another 24 hours. Antibiotic selection was performed in cell media containing 4 μg/mL of Puromycin. After 7 days of antibiotic selection, stable pools of surviving cells were expanded and used in a luciferase reporter assay.
# HIF-2α Luciferase Reporter Assay:
# On day one, 20 uL of HIF-Luc-786-0 cells in OptiMem (Cat. No. 31985088, Thermo Fisher) were seeded into each well of a 384 well white opaque plate (Corning 3570) and incubated at 37° C. and 5% CO2. Twenty microliters of 2× test compounds in OptiMem were added to cells after 4 hours of incubation. Final assay conditions comprised 20,000 cells per well in 1% DMSO with test compound concentrations ranging from 50 uM to 0 uM. After 20 hours incubation at 37° C. and 5% CO2, luciferase activity was determined using ONE-Glo Luciferase Assay Reagent (E6110, Promega) following the manufacture's recommended procedure. Briefly, 40 uL of ONE-Glo luciferase reagents were added to each well and luciferase signals were measured using an Envision 2102 Multilabel Reader. Percentage maximum activity in each test well was calculated based on DMSO (maximum activity) and no cell control wells (baseline activity). The IC50 values of the test compounds were determined from compound dose response curves fitted using a standard four parameter fit equation.
# [1] = molecular target: Histidine tagged HIF-2α protein containing PAS-B domain (240-350) (Homo sapiens, UniProt Q99814); assay: HIF-2α Scintillation Proximity Assay (SPA) binding assay; settings: read-out: HIF-2α Scintillation Proximity Assay; Table 1; 50 nM HIF-2α protein, 25 nM 3H-tracer
# Protocol: HIF-2α Scintillation Proximity Assay (SPA) Binding Assay:
# Tritium labeled compound N-(3-chlorophenyl)-4-nitro-2,1,3-benzoxadiazol-5-amine was obtained from American Radiolabeled Chemicals Inc. and copper chelate PVT SPA beads were from PerkinElmer (Cat #RPNQ0095). Histidine tagged HIF-2α protein containing PAS-B domain (240-350) was prepared and purified in house.
# Compounds solubilized in DMSO were dispensed into a white 384-well polystyrene non-binding flat clear bottom plate (Greiner Bio-One, Cat #781903) using an HP D300 dispenser. Ten microliters of HIS-tagged HIF-2α protein in buffer (25 mM Tris-HCl, pH 7.4, 150 mM NaCl, 0.15% BSA and 0.001% Tween 20) was added to the compound wells and allowed to incubate for 1 hour at room temperature. Ten microliters of SPA bead mix were added to the wells and incubated for an additional 45 minutes, followed by 10 ul of ^3H-tracer solution. Final assay conditions comprised 50 nM HIF-2α protein, 25 nM radiolabeled tracer and 3 ug beads per well with compounds in 2% DMSO. The plate was read using a MicroBeta Microplate Counter (PerkinElmer) for luminescence detection. The IC50 values of the test compounds were determined from compound dose response curves fitted using a standard four parameter fit equation and are reported in Table 1, Table 2, and Table 3.
Structure (SMILES),IC50 (HIF-2α) [nM],IC50 [1] [nM]
CS(=O)(=O)c1ccc([C@H]2CCCc3cc(F)cc(C#N)c32)c2c1[C@H](O)[C@H](F)[C@H]2F,100 to 1000,100 to 1000
N#Cc1c(S(=O)(=O)C(F)(F)F)ccc(N2CCCc3cc(Cl)cc(F)c32)c1Cl,> 1000,> 1000
CS(=O)(=O)c1ccc(N2CCCc3cc(F)cc(F)c32)c2c1C(O)C(F)(F)C2 (stereo not drawn),> 1000,> 1000
